PubChem BioAssay AID1259425 | University of Nebraska Medical Center | 2018

Test: 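Compare each knockdown with KSR1 silencing using changes in marker transcripts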 (primary screen)
Cells: HCT116 human colon cancer cells
Reagents: siRNA pool against human genes, 50 nM siRNA
Measured: 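mRNA of six signature genes measured together by branched-DNA assay after 50 nM siRNA pool, blank removed, divided by geometric mean of two housekeeping genes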
Scale: BNIP3L mRNA: higher = more BNIP3L transcript after knockdown; NDRG1 mRNA: higher = more NDRG1 transcript after knockdown
The deposit covers about 14,000 reagents; this is a random part of them. Further read-outs or replicates are left out here. No sequences are given here. Not given: the time to read-out.

For SUSD6 (sushi domain containing 6) [SID363999065], the values are BNIP3L mRNA, set 1 = 0.0589; NDRG1 mRNA, set 1 = 0.181. With knock-down of TBC1D4 (TBC1 domain family member 4) [SID364005516] the results were BNIP3L mRNA, set 1 = 0.136; NDRG1 mRNA, set 1 = 0.232. With knock-down of CACNB2 (calcium voltage-gated channel auxiliary subunit beta 2) [SID363992021], the record shows BNIP3L mRNA, set 1 = 0.0839; NDRG1 mRNA, set 1 = 0.0817. With knock-down of NCOA5 (nuclear receptor coactivator 5) [SID364001920], the screen gave BNIP3L mRNA, set 1 = 0.121; NDRG1 mRNA, set 1 = 0.136. With knock-down of CLRN1 (clarin 1) [SID364004426], the screen gave BNIP3L mRNA, set 1 = 0.104; NDRG1 mRNA, set 1 = 0.396. Silencing of WASF1 (WASP family member 1) [SID363994987] resulted in: BNIP3L mRNA, set 1 = 0.0531; NDRG1 mRNA, set 1 = 0.145.

For CSNK1E (casein kinase 1 epsilon) [SID363993107], the values are BNIP3L mRNA, set 1 = 0.0582; NDRG1 mRNA, set 1 = 0.58. For CEACAM19 (CEA cell adhesion molecule 19) [SID364001569] the deposit lists BNIP3L mRNA, set 1 = 0.325; NDRG1 mRNA, set 1 = 0.255. With knock-down of NT5DC2 (5'-nucleotidase domain containing 2) [SID364002598], the screen gave BNIP3L mRNA, set 1 = 0.216; NDRG1 mRNA, set 1 = 0.399. Depletion of CPNE3 (copine 3) [SID363994967] resulted in: BNIP3L mRNA, set 1 = 0.0573; NDRG1 mRNA, set 1 = 0.126. SLC35G2 [SID364003345] gave BNIP3L mRNA, set 1 = 0.119; NDRG1 mRNA, set 1 = 0.185. With knock-down of DNAJC6 (DnaJ heat shock protein family (Hsp40) member C6) [SID363999106] the results were BNIP3L mRNA, set 1 = 0.104; NDRG1 mRNA, set 1 = 0.785.

For TBCE (tubulin folding cofactor E) [SID363994327] the deposit lists BNIP3L mRNA, set 1 = 0.112; NDRG1 mRNA, set 1 = 0.15. Silencing of TMEFF2 [SID363999939] resulted in: BNIP3L mRNA, set 1 = 0.089; NDRG1 mRNA, set 1 = 0.13. After knock-down of SPAM1 (sperm adhesion molecule 1) [SID363994258] the results were BNIP3L mRNA, set 1 = 0.0468; NDRG1 mRNA, set 1 = 0.0799. Against PDAP1 (PDGFA associated protein 1) [SID363999177] the deposit lists BNIP3L mRNA, set 1 = 0.118; NDRG1 mRNA, set 1 = 0.212.

Reformatted: 3 of the entries above
DNAJC6 (DnaJ heat shock protein family (Hsp40) member C6) [SID363999106]
- BNIP3L mRNA, set 1: 0.104
- NDRG1 mRNA, set 1: 0.785

TBCE (tubulin folding cofactor E) [SID363994327]
- BNIP3L mRNA, set 1: 0.112
- NDRG1 mRNA, set 1: 0.15

TMEFF2 [SID363999939]
- BNIP3L mRNA, set 1: 0.089
- NDRG1 mRNA, set 1: 0.13

Next entries follow:
With knock-down of UBE2J1 (ubiquitin conjugating enzyme E2 J1) [SID363999800] the results were BNIP3L mRNA, set 1 = 0.0904; NDRG1 mRNA, set 1 = 0.205. ARMC5 (armadillo repeat containing 5) [SID364003020] scored BNIP3L mRNA, set 1 = 0.152; NDRG1 mRNA, set 1 = 0.763. ESRP2 (epithelial splicing regulatory protein 2) [SID364003172] scored BNIP3L mRNA, set 1 = 0.15; NDRG1 mRNA, set 1 = 0.439. NR3C1 (nuclear receptor subfamily 3 group C member 1) [SID363991512] gave BNIP3L mRNA, set 1 = 0.126; NDRG1 mRNA, set 1 = 0.168. TOGARAM1 (TOG array regulator of axonemal microtubules 1) [SID363999297] gave BNIP3L mRNA, set 1 = 0.13; NDRG1 mRNA, set 1 = 0.338. Against NSRP1 (nuclear speckle splicing regulatory protein 1) [SID364003798], the values are BNIP3L mRNA, set 1 = 0.0828; NDRG1 mRNA, set 1 = 0.141.

Knock-down of TSFM (Ts translation elongation factor, mitochondrial) [SID363996612] came out at: BNIP3L mRNA, set 1 = 0.123; NDRG1 mRNA, set 1 = 0.417. MAPKAPK5-AS1 (MAPKAPK5 antisense RNA 1) [SID364000178] gave BNIP3L mRNA, set 1 = 0.0941; NDRG1 mRNA, set 1 = 0.176. For TRPC6 [SID363995589], the entry reads BNIP3L mRNA, set 1 = 0.132; NDRG1 mRNA, set 1 = 0.293. With knock-down of FBRS (fibrosin) [SID364002439] the results were BNIP3L mRNA, set 1 = 0.0971; NDRG1 mRNA, set 1 = 0.388. Depletion of OLFML2B (olfactomedin like 2B) [SID363999497] came out at: BNIP3L mRNA, set 1 = 0.141; NDRG1 mRNA, set 1 = 0.242. After knock-down of GPN1 (GPN-loop GTPase 1) [SID363997955], the record shows BNIP3L mRNA, set 1 = 0.123; NDRG1 mRNA, set 1 = 0.59.
